Test results taken from PubChem BioAssay AID248 (DTP/NCI, 2004).
The list does not hold the whole screen: it is rich in T/C values a quarter to a half above the control, in often repeated tests (any T/C) and in doses without a T/C. Further doses and runs are listed elsewhere. T/C is the treated group as % of the vehicle group. Some entries give survivors of the animals treated and no T/C: the source files T/C as zero there, which appears to mark a toxic dose or a test without result, not a measured value. Some doses without a T/C left all or most animals alive at the check, yet need not have been tolerated: survival well below the control is almost never listed, so the zero probably covers shortened survival too. Counts of survivors are from the toxicity check (mostly the fifth day) where no day follows; animals may have died later. Schedules are NCI's codes, taken here to give the interval after Q, in days (D) or hours (H), and the number of doses after X. Some entries hold several experiments; their values stand side by side, smallest first. Some schedule codes hold Z or #, which are not explained here. Some molecules as drawn cover several salts, stereoisomers or complexes of the source; a dose is that of the sample tested. For survival time, this PubChem deposit counts one and a half times the control or more as active, and values a quarter to a half above the control carry no call in these data; other NCI protocols may use other cut-offs. Additions like (4×) count equal records among those shown. Some T/C values are followed by the survivors on the day toxicity was checked, most often the fifth; without a count, all were alive then.

Tested on: L1210 leukemia ip in BDF1 mice, survival T/C
Assay: NCI In Vivo Anticancer Drug Screen. Data for tumor model L1210 Leukemia (intraperitoneal) in B6D2F1 (BDF1) mice
Settings: higher T/C = longer survival
[1] = T/C endpoint: mean survival time, dose: 200.0 mg/kg/injection, schedule: Q01DX009 (ip), vehicle: saline with Tween-80
[2] = T/C endpoint: mean survival time, dose: 200.0 mg/kg/injection, schedule: Q01DX001 (ip), vehicle: carboxymethylcellulose (CMC)
[3] = T/C endpoint: mean survival time, dose: 100.0 mg/kg/injection, schedule: Q04DX002 (ip), vehicle: gum acacia
[4] = T/C endpoint: mean survival time, dose: 75.0 mg/kg/injection, schedule: Q01DX001 (ip), vehicle: water
[5] = T/C endpoint: mean survival time, dose: 150.0 mg/kg/injection, schedule: Q01DX001 (ip), vehicle: water
[6] = T/C endpoint: mean survival time, dose: 225.0 mg/kg/injection, schedule: Q01DX001 (ip), vehicle: water
[7] = T/C endpoint: mean survival time, dose: 100.0 mg/kg/injection, schedule: Q01DX009 (ip), vehicle: Klucel (hydroxypropylcellulose) (HPC)
[8] = T/C endpoint: mean survival time, dose: 100.0 mg/kg/injection, schedule: Q04DX003 (ip), vehicle: saline
[9] = T/C endpoint: mean survival time, dose: 200.0 mg/kg/injection, schedule: Q04DX003 (ip), vehicle: saline
[10] = T/C endpoint: mean survival time, dose: 400.0 mg/kg/injection, schedule: Q01DX001 (ip), vehicle: carboxymethylcellulose (CMC)
[11] = T/C endpoint: mean survival time, dose: 400.0 mg/kg/injection, schedule: Q04DX003 (ip), vehicle: saline
[12] = T/C endpoint: mean survival time, dose: 400.0 mg/kg/injection, schedule: Q01DX001 (ip), vehicle: saline with Tween-80
[13] = T/C endpoint: mean survival time, dose: 400.0 mg/kg/injection, schedule: Q04DX003 (ip), vehicle: Klucel (hydroxypropylcellulose) (HPC)

Nc1ccc(Cl)cc1N
survivor count (T/C endpoint: mean survival time, dose: 265.0 mg/kg/injection, schedule: Q01DX009 (ip), vehicle: other): 6 of 10 | survivor count (T/C endpoint: mean survival time, dose: 400.0 mg/kg/injection, schedule: Q01DX009 (ip), vehicle: other): 2 of 10 and 3 of 3 | T/C (T/C endpoint: mean survival time, dose: 400.0 mg/kg/injection, schedule: Q01DX009 (ip), vehicle: saline with Tween-80): 125 % of control [2 of 3 alive] | survivor count (T/C endpoint: mean survival time, dose: 600.0 mg/kg/injection, schedule: Q01DX001 (ip), vehicle: other): 2 of 10 | survivor count (T/C endpoint: mean survival time, dose: 600.0 mg/kg/injection, schedule: Q01DX009 (ip), vehicle: other): 0 of 3 | survivor count (T/C endpoint: mean survival time, dose: 600.0 mg/kg/injection, schedule: Q04DX003 (ip), vehicle: other): 1 of 10

O=C1C=C[C@H](O)[C@@]2(CO)O[C@@H]12
survivor count (T/C endpoint: median survival time, dose: 20.0 mg/kg/injection, schedule: Q01DX009 (ip), vehicle: saline with Tween-80): 3 of 6

CN(C)c1cc2c3c(c1)CCCN3CCC2
survivor count (T/C endpoint: mean survival time, dose: 25.0 mg/kg/injection, schedule: Q01DX001 (ip), vehicle: saline): 1 of 6

Cc1nc(SCc2ccc(Cl)cc2)nc(N2CC2)c1Br
survivor count (T/C endpoint: mean survival time, dose: 133.0 mg/kg/injection, schedule: Q01DX Z (ip), vehicle: methylcellulose (MC)): 6 of 6

Cc1ccc(Cl)cc1NC(=O)Nc1cccc(C(F)(F)F)c1
T/C (T/C endpoint: mean survival time, dose: 100.0 mg/kg/injection, schedule: Q01DX009 (ip), vehicle: saline with Tween-80): 91, 93, 94, 97 % of control | T/C [1]: 92 % of control (2×) | survivor count [1]: 3 of 3

O=C1N=C(c2ccccc2)OC1C(=O)c1ccccc1 (stereo unspecified)
survivor count (T/C endpoint: mean survival time, dose: 400.0 mg/kg/injection, schedule: Q01DX001 (ip), vehicle: saline): 1 of 4

CCOC(=O)CSC(=S)N(C)C
survivor count (T/C endpoint: mean survival time, dose: 50.0 mg/kg/injection, schedule: Q01DX009 (ip), vehicle: Klucel (hydroxypropylcellulose) (HPC)): 3 of 3

Cc1ccc(S(=O)(=O)Oc2ccccc2NC(=O)c2ccccc2)cc1
survivor count [1]: 3 of 3

Nc1cc(S(=O)(=O)O)cc2cc(S(=O)(=O)O)cc(O)c12
T/C (T/C endpoint: mean survival time, dose: 200.0 mg/kg/injection, schedule: Q04DX002 (ip), vehicle: saline): 133 % of control

CN(C)S(=O)(=O)c1ccc(CC(O)(c2ccccc2)c2ccccc2)cc1
T/C [2]: 131 % of control

CN1c2ccccc2C(C)(C)C12C=Cc1ccccc1O2 (stereo unspecified)
survivor count [3]: 3 of 3 | survivor count (T/C endpoint: mean survival time, dose: 400.0 mg/kg/injection, schedule: Q04DX002 (ip), vehicle: gum acacia): 1 of 3

N=c1c2cnn(C3OC(CO)C(O)C3O)c2ncn1N (stereo unspecified)
survivor count (T/C endpoint: mean survival time, dose: 25.0 mg/kg/injection, schedule: Q01DX009 (ip), vehicle: water): 6 of 6 | survivor count (T/C endpoint: mean survival time, dose: 50.0 mg/kg/injection, schedule: Q01DX009 (ip), vehicle: water): 6 of 6

O=C(Nc1ccc(C2=NCCN2)cc1)N1CCN(C(=O)Nc2ccc(C3=NCCN3)cc2)CC1
survivor count (T/C endpoint: mean survival time, dose: 62.5 mg/kg/injection, schedule: Q01DX Z (ip), vehicle: water): 1 of 6 | T/C [4]: 141 and 160 % of control [9 of 10 alive] | survivor count [4]: 3 of 10 and 4 of 10 | survivor count (T/C endpoint: mean survival time, dose: 125.0 mg/kg/injection, schedule: Q01DX Z (ip), vehicle: water): 1 of 6 | T/C [5]: 205 % of control [8 of 10 alive] | survivor count [5]: 0 of 10, 5 of 10, 6 of 10 | T/C [6]: 196 [8 of 10 alive], 238, 252 % of control | survivor count [6]: 6 of 10 | survivor count (T/C endpoint: mean survival time, dose: 500.0 mg/kg/injection, schedule: Q01DX Z (ip), vehicle: water): 6 of 6

Cc1cccc(NC(=O)Nc2ccccc2F)n1
survivor count [7]: 3 of 3 | survivor count (T/C endpoint: mean survival time, dose: 400.0 mg/kg/injection, schedule: Q01DX001 (ip), vehicle: Klucel (hydroxypropylcellulose) (HPC)): 6 of 6

NC(=S)N/N=C(\c1ccccc1)c1ccccn1
survivor count (T/C endpoint: mean survival time, dose: 100.0 mg/kg/injection, schedule: Q01DX001 (ip), vehicle: gum acacia): 2 of 6 | survivor count (T/C endpoint: mean survival time, dose: 100.0 mg/kg/injection, schedule: Q04DX003 (ip), vehicle: gum acacia): 3 of 6 | survivor count (T/C endpoint: mean survival time, dose: 200.0 mg/kg/injection, schedule: Q01DX001 (ip), vehicle: gum acacia): 0 of 6 | survivor count (T/C endpoint: mean survival time, dose: 400.0 mg/kg/injection, schedule: Q01DX001 (ip), vehicle: gum acacia): 0 of 6

c1ccc(C[n+]2ccc3ccccc3c2)cc1
survivor count (T/C endpoint: mean survival time, dose: 75.0 mg/kg/injection, schedule: Q01DX001 (ip), vehicle: saline): 2 of 6 | survivor count [8]: 2 of 6 | survivor count (T/C endpoint: mean survival time, dose: 150.0 mg/kg/injection, schedule: Q01DX001 (ip), vehicle: saline): 0 of 6 | survivor count [9]: 0 of 6 | survivor count (T/C endpoint: mean survival time, dose: 300.0 mg/kg/injection, schedule: Q01DX001 (ip), vehicle: saline): 0 of 6

CC(=O)OC1C=CCC2C(=O)c3cc4ccccc4cc3C(=O)C12 (stereo unspecified)
survivor count (T/C endpoint: mean survival time, dose: 400.0 mg/kg/injection, schedule: Q01DX001 (ip), vehicle: other): 0 of 4

CSc1nn2c(SC)nnc2s1
survivor count [10]: 0 of 4

COc1cc([N+](=O)[O-])cc2c1OC1(C=C2)N(C)c2ccccc2C1(C)C (stereo unspecified)
survivor count [3]: 3 of 3

C#CCC1(OC(N)=O)CCCCC1
survivor count (T/C endpoint: mean survival time, dose: 400.0 mg/kg/injection, schedule: Q01DX009 (ip), vehicle: Klucel (hydroxypropylcellulose) (HPC)): 3 of 6

CCCC(=O)N(C(=O)CCC)c1cc2c3c(c1)CCCN3CCC2
survivor count [7]: 6 of 6 | survivor count [9]: 6 of 6 | survivor count [11]: 3 of 6

BrC(c1ccccc1)C(Br)[n+]1ccccc1 (stereo unspecified)
survivor count (T/C endpoint: mean survival time, dose: 150.0 mg/kg/injection, schedule: Q01DX001 (ip), vehicle: other): 0 of 6 | survivor count (T/C endpoint: mean survival time, dose: 300.0 mg/kg/injection, schedule: Q01DX001 (ip), vehicle: other): 1 of 6

NC(=S)N/N=C/c1cc(-c2cccc(N)c2)ccn1
T/C (T/C endpoint: mean survival time, dose: 75.0 mg/kg/injection, schedule: Q01DX009 (ip), vehicle: saline with Tween-80): 125 % of control

CCC(/C=N\NC(=O)CCCC(=O)N/N=C/C(CC)CC)CC
survivor count [2]: 4 of 4

N=C(N)c1ccc(-c2cc(-c3ccc(C(=N)N)cc3)on2)cc1
survivor count [8]: 0 of 4 | survivor count [9]: 0 of 4 | survivor count [11]: 0 of 4

CCCCCCC12CCC(=O)C1(CCCCCCC(=O)O)O2 (stereo unspecified)
survivor count (T/C endpoint: mean survival time, dose: 50.0 mg/kg/injection, schedule: Q04DX002 (ip), vehicle: Klucel (hydroxypropylcellulose) (HPC)): 1 of 3 | survivor count (T/C endpoint: mean survival time, dose: 100.0 mg/kg/injection, schedule: Q04DX002 (ip), vehicle: Klucel (hydroxypropylcellulose) (HPC)): 1 of 3 | survivor count (T/C endpoint: mean survival time, dose: 200.0 mg/kg/injection, schedule: Q04DX002 (ip), vehicle: Klucel (hydroxypropylcellulose) (HPC)): 1 of 3

CCCCCSc1nccc(N)n1
survivor count [12]: 0 of 6

O=C(O)C1CC1(Br)Br (stereo unspecified)
survivor count (T/C endpoint: mean survival time, dose: 200.0 mg/kg/injection, schedule: Q04DX003 (ip), vehicle: acetone): 0 of 6 | survivor count (T/C endpoint: mean survival time, dose: 400.0 mg/kg/injection, schedule: Q04DX003 (ip), vehicle: acetone): 0 of 6

CN(C)C=O.CN(C)C=O.[Cl][Sn]([Cl])([Cl])[Cl]
survivor count (T/C endpoint: mean survival time, dose: 200.0 mg/kg/injection, schedule: Q01DX009 (ip), vehicle: Klucel (hydroxypropylcellulose) (HPC)): 1 of 6 | survivor count [13]: 0 of 6

CCCCCCOC(N)=O
survivor count [13]: 3 of 6

Nc1cccc(OCc2nc(N)nc(N)c2-c2ccc(Cl)c(Cl)c2)c1
survivor count [12]: 5 of 6

O=C(C(Cl)Cl)C(Cl)Cl
survivor count (T/C endpoint: mean survival time, dose: 20.0 mg/kg/injection, schedule: Q01DX001 (ip), vehicle: carboxymethylcellulose (CMC)): 3 of 6 | survivor count (T/C endpoint: mean survival time, dose: 40.0 mg/kg/injection, schedule: Q01DX001 (ip), vehicle: carboxymethylcellulose (CMC)): 3 of 6 | survivor count (T/C endpoint: mean survival time, dose: 50.0 mg/kg/injection, schedule: Q01DX001 (ip), vehicle: carboxymethylcellulose (CMC)): 0 of 6 | survivor count (T/C endpoint: mean survival time, dose: 100.0 mg/kg/injection, schedule: Q01DX001 (ip), vehicle: carboxymethylcellulose (CMC)): 0 of 6 | survivor count [2]: 0 of 6 | survivor count [10]: 0 of 6
